Source: US8168420B2, “Microorganism capable of microbially decomposing chloro-, methylthio- and methoxy-triazine agrichemicals” (priority 2006, dated 2012)
Some compounds share one wording; it may come from a single statement.

Columns and labels:
[1] = system: Nocardioides sp. strain MTD22; experiment: Decomposition test of triazine compounds using strain MTD22 in inorganic liquid medium (HPLC); settings: 6 days after start of incubation; 1 to 8 mg/L initial; 30° C., 120 rpm; culture supernatant by HPLC
[2] = system: Arthrobacter aurescens strain TC1; settings: cited from earlier work
[3] = system: simetryn-decomposing bacterium; experiment: Shaking culture and limiting-dilution subculture of enriched simetryn-decomposing bacterium

Row | SMILES | concentration of the agrichemical (triazine compound) in the culture solution [1] | growth of strain in medium containing compound as sole source of nitrogen [2] | decomposition of simetryn in culture solution ([3]; charcoal particle from enrichment apparatus, medium of Table 4, 30° C. with shaking) | time to complete decomposition of simetryn ([3]; highly-diluted subculture solution after about 1 year of subculture, simetryn about 20 mg/L)
1 | CCNc1nc(NC(C)C(C)C)nc(SC)n1 (centres unmarked) [dimethametryn, 2-(1,2-dimethylpropylamino)-4-ethylamino-6-methylthio-s-tr iazine] | equal to or less than the detection limit | – | – | –
2 | CSc1nc(NC(C)C)nc(NC(C)C)n1 [prometryn, 2,4-bis(isopropylamino)-6-methylthio-s-triazine] | equal to or less than the detection limit | grew | – | –
3 | CCNc1nc(Cl)nc(NC(C)C)n1 [atrazine, 2-chloro-4-ethylamino-6-isopropylamino-s-triazine] | equal to or less than the detection limit | – | – | –
4 | CCNc1nc(NC(C)C)nc(SC)n1 [ametryn, 2-ethylamino-4-isopropylamino-6-methylthio-s-triazine] | equal to or less than the detection limit | grew | – | –
5 | CCNc1nc(Cl)nc(NCC)n1 [simazine, 2-chloro-4,6-bis(ethylamino)-s-triazine] | equal to or less than the detection limit | – | – | –
6 | CNc1nc(NC(C)C)nc(SC)n1 [desmetryn, 2-isopropylamino-4-methylamino-6-methylthio-s-triazine] | equal to or less than the detection limit | – | – | –
7 | CCNc1nc(NC(C)C)nc(OC)n1 [atraton, 2-ethylamino-4-isopropylamino-6-methoxy-s-triazine] | equal to or less than the detection limit | – | – | –
8 | CC(C)Nc1nc(Cl)nc(NC(C)C)n1 [propazine, 2-chloro-4,6-bis(isopropylamino)-s-triazine] | equal to or less than the detection limit | – | – | –
9 | CCNc1nc(NCC)nc(SC)n1 [simetryn, 2,4-bis(ethylamino)-6-methylthio-s-triazine] | equal to or less than the detection limit | – | decomposed little by little | about 1 week
10 | CCNc1nc(Cl)nc(NC(C)(C)C)n1 [terbuthylazine, 2-tert-butylamino-4-chloro-6-ethylamino-s-triazine] | equal to or less than the detection limit | – | – | –
